In experiment [1] the target is eGFP-tagged RBPJ (recombination signal binding protein for immunoglobulin kappa J region) (UniProt P31266). Kind of experiment: co-IP; HEK 293 T cells transfected with RBPJ-GFP (mCherry as negative control), hypoxia (2% O2) overnight; lysis in PBS with 0.5% Triton-X 100; anti-GFP antibody on protein A/G-agarose, 1 h at 4C, 3 washes; western blot for RBPJ, HIF-1 alpha and HIF-2 alpha.

Chains of the proteins cited; added tags and fusions are not shown.
UniProt P31266: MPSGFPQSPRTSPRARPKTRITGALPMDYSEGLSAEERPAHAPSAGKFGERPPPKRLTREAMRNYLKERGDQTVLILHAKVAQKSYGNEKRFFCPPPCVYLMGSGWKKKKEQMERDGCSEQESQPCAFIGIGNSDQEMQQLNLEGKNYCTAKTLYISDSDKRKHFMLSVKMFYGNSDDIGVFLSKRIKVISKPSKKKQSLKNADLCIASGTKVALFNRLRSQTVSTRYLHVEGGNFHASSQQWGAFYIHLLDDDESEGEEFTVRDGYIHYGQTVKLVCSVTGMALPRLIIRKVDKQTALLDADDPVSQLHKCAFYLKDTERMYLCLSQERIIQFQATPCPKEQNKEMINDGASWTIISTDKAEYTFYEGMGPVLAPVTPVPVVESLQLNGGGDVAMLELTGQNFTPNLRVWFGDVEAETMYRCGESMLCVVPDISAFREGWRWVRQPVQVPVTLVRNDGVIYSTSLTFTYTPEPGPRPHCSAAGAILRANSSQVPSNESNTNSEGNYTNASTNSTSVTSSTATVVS
UniProt Q16665: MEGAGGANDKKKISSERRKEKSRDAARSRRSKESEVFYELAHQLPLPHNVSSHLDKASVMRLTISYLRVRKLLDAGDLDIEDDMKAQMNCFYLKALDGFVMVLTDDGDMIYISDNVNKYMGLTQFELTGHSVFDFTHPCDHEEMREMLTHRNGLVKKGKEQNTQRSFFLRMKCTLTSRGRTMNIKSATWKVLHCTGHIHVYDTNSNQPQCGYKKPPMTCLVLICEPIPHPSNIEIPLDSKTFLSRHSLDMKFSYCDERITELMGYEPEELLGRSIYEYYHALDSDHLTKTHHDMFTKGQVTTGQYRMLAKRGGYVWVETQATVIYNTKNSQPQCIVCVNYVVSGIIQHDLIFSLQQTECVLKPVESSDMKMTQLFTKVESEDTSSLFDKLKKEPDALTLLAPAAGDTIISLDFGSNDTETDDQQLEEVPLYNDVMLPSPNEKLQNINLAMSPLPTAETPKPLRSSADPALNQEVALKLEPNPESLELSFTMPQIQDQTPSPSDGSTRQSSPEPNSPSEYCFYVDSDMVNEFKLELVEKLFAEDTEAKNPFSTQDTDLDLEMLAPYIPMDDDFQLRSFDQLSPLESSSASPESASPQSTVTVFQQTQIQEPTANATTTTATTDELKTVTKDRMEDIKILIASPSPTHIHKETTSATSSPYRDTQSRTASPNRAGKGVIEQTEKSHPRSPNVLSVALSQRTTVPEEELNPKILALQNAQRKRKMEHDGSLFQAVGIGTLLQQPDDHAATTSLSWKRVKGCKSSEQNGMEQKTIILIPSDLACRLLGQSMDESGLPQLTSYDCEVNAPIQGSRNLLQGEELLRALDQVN
UniProt Q99814: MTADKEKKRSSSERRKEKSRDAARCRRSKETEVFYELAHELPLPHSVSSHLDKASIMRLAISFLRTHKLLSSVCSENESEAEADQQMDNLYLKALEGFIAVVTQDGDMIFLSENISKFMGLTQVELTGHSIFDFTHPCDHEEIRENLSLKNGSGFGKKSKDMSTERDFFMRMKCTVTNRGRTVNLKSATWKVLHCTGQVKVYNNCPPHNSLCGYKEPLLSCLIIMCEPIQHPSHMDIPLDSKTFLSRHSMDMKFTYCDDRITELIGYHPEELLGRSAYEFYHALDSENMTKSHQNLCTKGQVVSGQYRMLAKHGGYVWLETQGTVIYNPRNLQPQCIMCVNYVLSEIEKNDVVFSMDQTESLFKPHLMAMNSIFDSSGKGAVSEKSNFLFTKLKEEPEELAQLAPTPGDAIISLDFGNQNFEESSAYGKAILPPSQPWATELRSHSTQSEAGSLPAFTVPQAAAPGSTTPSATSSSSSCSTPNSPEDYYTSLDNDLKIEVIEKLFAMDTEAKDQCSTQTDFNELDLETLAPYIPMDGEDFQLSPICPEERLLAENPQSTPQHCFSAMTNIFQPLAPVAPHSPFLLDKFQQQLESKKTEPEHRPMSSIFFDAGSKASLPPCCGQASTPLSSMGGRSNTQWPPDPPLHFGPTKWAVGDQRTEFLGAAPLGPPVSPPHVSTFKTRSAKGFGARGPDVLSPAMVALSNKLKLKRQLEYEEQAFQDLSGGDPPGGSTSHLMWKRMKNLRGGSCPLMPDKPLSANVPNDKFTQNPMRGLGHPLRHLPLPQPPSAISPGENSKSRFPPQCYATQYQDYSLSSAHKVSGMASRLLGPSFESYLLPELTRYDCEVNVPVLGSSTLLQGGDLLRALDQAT
UniProt P97481: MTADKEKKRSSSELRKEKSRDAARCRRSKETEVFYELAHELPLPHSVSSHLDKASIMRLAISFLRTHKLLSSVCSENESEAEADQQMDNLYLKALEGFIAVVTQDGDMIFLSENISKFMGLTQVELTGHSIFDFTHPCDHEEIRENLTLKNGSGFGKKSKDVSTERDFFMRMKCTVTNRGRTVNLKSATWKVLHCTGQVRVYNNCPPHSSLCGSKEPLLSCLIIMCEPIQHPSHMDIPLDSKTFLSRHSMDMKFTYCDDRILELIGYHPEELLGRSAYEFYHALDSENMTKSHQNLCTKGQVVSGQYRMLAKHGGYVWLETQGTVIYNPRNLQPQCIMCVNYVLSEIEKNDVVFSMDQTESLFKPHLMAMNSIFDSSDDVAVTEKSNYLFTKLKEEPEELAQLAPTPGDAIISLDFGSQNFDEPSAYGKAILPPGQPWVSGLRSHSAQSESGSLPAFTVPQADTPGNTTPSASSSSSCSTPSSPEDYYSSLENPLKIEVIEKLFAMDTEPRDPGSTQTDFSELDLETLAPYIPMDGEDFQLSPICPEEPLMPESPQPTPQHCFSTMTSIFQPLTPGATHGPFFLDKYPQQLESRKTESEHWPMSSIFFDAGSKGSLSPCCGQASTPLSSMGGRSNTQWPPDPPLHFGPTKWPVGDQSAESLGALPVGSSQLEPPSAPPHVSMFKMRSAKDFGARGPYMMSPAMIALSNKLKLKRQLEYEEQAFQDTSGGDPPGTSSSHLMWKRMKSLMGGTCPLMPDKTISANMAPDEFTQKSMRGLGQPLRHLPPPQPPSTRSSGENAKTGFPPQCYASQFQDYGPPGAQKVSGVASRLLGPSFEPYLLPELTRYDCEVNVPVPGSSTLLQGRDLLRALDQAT

For experiment [2], the target named is RBPJ, endogenous in mouse adult cardiomyocytes (mouse (endogenous in isolated adult cardiomyocytes)) (UniProt P31266). Nature of the experiment: proximity ligation; in situ PLA (Duolink) on isolated mouse ACM fixed in cold methanol, cultured 14 h under hypoxia (1% O2) or normoxia (21% O2); RBPJ antibody probe PLUS, HIF-1 alpha or HIF-2 alpha antibody probe MINUS; cKO ACM as negative control.

No constants are given. Whether binding was seen depends on the method and setting. Binding seen in cells or lysates may run through a third protein. Some entries that bind do so weakly or less than the wild type.

Consider “HIF1α (hypoxia-inducible factor 1 alpha), endogenous in HEK 293 T (from UniProt Q16665 1-826)”, for which, in experiment [1], the binding entry is reported as “binds”. Same read-out and setting: for “HIF2α (hypoxia-inducible factor 2 alpha), endogenous in HEK 293 T (from UniProt Q99814 1-870)” the value was “binds”. Turning to “HIF2α, endogenous in mouse adult cardiomyocytes (from UniProt P97481 1-874)”, the binding entry in experiment [2] is “binds”.

These data come from PMC4931341.
